Results are given in words; binding and its absence hold for the method and conditions named. For part of these data: In cells and extracts the contact can be indirect. Some entries that bind do so weakly or less than the wild type. For part of these data: Tags and fused reporters may be left off the sequences shown.
How the values were obtained:
[1] = molecular target: T1, mediator of RNA polymerase II transcription subunit 23 (MED23), endogenous (human (endogenous in NCI-N87)) (UniProt Q9ULK4); assay: co-IP; endogenous proteins in NCI-N87 lysate (400 μg); MED23 antibody or rabbit IgG, protein-A/G PLUS-agarose, 4 °C; blot for ELF3; cells treated with 10 μM of compounds 3, 10 or 25 for 16 hr
T1 sequence: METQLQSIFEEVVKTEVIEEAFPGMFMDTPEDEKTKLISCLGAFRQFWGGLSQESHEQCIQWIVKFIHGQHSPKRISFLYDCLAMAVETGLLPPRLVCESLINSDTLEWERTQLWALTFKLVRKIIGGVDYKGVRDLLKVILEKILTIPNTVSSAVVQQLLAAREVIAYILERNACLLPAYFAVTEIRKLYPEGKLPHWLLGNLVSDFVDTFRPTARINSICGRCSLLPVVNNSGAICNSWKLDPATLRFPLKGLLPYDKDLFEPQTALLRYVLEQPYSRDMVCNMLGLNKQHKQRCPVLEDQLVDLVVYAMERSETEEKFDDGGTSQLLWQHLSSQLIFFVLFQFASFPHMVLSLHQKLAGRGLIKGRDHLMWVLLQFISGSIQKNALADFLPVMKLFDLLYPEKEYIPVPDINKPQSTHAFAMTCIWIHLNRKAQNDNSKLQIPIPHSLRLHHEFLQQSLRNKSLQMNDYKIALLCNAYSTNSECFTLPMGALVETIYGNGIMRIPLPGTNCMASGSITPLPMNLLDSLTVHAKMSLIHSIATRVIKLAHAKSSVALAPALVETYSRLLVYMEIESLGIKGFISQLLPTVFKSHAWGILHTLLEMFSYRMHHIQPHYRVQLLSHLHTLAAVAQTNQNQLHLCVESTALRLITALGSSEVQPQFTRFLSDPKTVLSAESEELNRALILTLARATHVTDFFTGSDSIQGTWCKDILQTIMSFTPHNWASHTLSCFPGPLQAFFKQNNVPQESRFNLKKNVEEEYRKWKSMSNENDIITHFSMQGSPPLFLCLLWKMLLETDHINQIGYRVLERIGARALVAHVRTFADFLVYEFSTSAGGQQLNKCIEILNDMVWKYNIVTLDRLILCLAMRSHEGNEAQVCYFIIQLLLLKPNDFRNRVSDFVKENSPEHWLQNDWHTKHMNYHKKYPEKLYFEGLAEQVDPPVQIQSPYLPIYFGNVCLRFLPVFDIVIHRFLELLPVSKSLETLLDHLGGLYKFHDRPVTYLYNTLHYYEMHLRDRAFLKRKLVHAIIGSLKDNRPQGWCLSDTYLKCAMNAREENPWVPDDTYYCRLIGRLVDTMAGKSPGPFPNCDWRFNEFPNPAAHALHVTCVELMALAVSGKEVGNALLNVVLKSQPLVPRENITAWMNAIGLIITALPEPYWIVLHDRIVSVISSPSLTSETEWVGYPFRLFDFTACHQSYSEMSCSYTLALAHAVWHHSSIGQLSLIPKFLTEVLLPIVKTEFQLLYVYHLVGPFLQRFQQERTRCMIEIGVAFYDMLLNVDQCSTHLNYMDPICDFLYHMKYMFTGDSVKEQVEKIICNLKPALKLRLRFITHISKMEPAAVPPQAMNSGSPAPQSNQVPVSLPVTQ

[2] = molecular target: T2, fluorescein isothiocyanate (FITC)-labeled ELF3_(129-145) peptide (UniProt P78545); assay: fluorescence polarisation; cell-free displacement; varying concentrations of unlabeled ELF3(137-144) peptide added to 80 nM (His)6-MED23(391-582) and 10 nM FITC-ELF3(129-145); Ki from IC50 by the Cheng-Prusoff equation; n=3; both purified
T2 sequence (peptide, fluorescein isothiocyanate (FITC) label, position not stated): TSSSSDELSWIIELLEK

GST-ELF3WT = molecular target: T3, GST-ELF3WT (UniProt P78545); assay: pull-down; GST-ELF3WT and 3xFLAG-MED23 expressed in HEK293; 1000 μg lysate on Glutathione Sepharose beads overnight at 4 °C, washed with PBS, eluted with glutathione; western blot; with or without 5 μM compound 10
T3 sequence: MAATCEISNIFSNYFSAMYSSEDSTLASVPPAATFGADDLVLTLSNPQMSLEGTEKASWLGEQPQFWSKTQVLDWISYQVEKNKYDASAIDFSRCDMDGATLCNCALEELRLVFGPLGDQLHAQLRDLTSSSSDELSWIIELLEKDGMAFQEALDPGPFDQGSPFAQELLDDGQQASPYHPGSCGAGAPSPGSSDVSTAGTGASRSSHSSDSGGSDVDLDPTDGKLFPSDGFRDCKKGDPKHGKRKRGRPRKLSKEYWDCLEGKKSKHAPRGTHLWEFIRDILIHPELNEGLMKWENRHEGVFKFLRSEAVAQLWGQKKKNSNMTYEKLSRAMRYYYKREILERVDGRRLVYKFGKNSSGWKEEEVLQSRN

B1: Nluc-ELF3WT (natural protein, UniProt P78545 1-371, looked up)
chain: T3 sequence
notes: ELF3, full-length cDNA, wild type; source: HEK293, transfected, in cells
- binding [1]: binds

B2: (His)6-MED23_(391-582) protein (domain or fragment, UniProt Q9ULK4 391-582)
chain: DFLPVMKLFDLLYPEKEYIPVPDINKPQSTHAFAMTCIWIHLNRKAQNDNSKLQIPIPHSLRLHHEFLQQSLRNKSLQMNDYKIALLCNAYSTNSECFTLPMGALVETIYGNGIMRIPLPGTNCMASGSITPLPMNLLDSLTVHAKMSLIHSIATRVIKLAHAKSSVALAPALVETYSRLLVYMEIESLGIK
- binding [2]: binds

B3: 3xFLAG-MED23 (protein, UniProt Q9ULK4 1-1368)
chain: T1 sequence
- binding (GST-ELF3WT): binds
